Measured values published in article PMC10475362.
No constants are given. Whether binding was seen depends on the method and setting. Binding seen in cells or lysates may run through a third protein. Some entries that bind do so weakly or less than the wild type. Sequences can lack the tags named with a protein.

Protein sequences, listed by entry. Tags and fused reporters are not part of them.
UniProt O75365: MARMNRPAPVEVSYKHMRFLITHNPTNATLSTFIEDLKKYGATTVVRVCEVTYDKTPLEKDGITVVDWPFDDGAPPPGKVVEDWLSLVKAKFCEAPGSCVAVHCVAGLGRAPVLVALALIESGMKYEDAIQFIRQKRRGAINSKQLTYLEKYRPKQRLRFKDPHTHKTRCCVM

Tests used:
myc-TMED10 (human) = molecular target: T1, myc-TMED10 (human) (UniProt P49755); assay: co-IP; HCT116 cells transiently transfected with GST-PRL-3 and myc-TMED10 for 48 hours; lysis in 50 mM Tris-HCl pH 7.5, 150 mM NaCl, 1 mM EDTA, 0.5% NP-40; immunoprecipitation with anti-myc antibody, Western blotting
T1 sequence: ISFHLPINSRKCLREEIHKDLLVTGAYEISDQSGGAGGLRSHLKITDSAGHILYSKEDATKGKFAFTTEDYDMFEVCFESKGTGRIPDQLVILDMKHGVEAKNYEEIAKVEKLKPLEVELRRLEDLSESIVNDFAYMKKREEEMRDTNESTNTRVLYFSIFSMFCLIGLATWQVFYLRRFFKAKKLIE

GST-PRL-3 (human) = GST-PRL-3 (human) (UniProt O75365); assay: pull-down; HCT116 cells transiently transfected with GST-PRL-3 and myc-TMED10 for 48 hours; lysis in 50 mM Tris-HCl pH 7.5, 150 mM NaCl, 1 mM EDTA, 0.5% NP-40; GST pull-down from the lysate with Glutathione Sepharose, Western blotting

Q: Which binding (myc-TMED10 (human)) does the source give for GST-PRL-3 (from UniProt O75365 1-173) here?
A: The binding was “binds”.

B1: myc-TMED10 (protein, UniProt P49755 32-219)
chain: ISFHLPINSRKCLREEIHKDLLVTGAYEISDQSGGAGGLRSHLKITDSAGHILYSKEDATKGKFAFTTEDYDMFEVCFESKGTGRIPDQLVILDMKHGVEAKNYEEIAKVEKLKPLEVELRRLEDLSESIVNDFAYMKKREEEMRDTNESTNTRVLYFSIFSMFCLIGLATWQVFYLRRFFKAKKLIE
Q: How did the binding (GST-PRL-3 (human)) turn out when B1 was run?
A: The binding was “binds”.
